Data: paper PMC5472185
No constants are given. Whether binding was seen depends on the method and setting. In cells and extracts the contact can be indirect. These calls come from enrichment with a bait or labelling near it, and not all partners need be listed. No binding means not detected with the bait.

Protein sequences, listed by entry. Tags and fused reporters are not part of them. Lines headed by an entry give the natural chain unless they say otherwise; changes in a name come on top.
UniProt Q8IKK0: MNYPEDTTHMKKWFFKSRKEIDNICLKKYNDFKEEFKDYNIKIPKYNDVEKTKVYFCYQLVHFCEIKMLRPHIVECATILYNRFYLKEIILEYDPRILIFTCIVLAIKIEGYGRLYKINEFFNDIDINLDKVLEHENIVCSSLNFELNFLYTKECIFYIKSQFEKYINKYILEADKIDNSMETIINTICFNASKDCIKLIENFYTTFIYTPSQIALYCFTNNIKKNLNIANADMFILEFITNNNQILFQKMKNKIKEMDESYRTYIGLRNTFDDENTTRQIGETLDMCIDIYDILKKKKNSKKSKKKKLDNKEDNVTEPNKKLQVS
UniProt P61075: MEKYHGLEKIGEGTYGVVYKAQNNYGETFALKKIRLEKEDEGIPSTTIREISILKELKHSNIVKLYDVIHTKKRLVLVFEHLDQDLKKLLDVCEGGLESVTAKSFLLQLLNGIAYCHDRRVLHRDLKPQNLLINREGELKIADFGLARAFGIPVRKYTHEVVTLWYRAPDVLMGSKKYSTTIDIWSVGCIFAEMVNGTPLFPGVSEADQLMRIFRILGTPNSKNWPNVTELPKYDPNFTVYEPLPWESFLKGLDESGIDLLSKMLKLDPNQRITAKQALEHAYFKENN

Target: PfCyc1-smHA (full-length P. falciparum Cyc1 fused to spaghetti monster HA) (Plasmodium falciparum) (UniProt Q8IKK0)
Assay: affinity purification with mass spectrometry; schizonts 36 to 48 h postinfection lysed in 0.5% Triton X-100 in PBS, diluted 1:2 into TBST, immunoprecipitated with anti-HA magnetic beads at room temperature for 30 min; whole lane by LC/MS/MS; biological duplicates; smHA alone as control

PfPK5 (from UniProt P61075 1-288)
binding: no binding

B1: PfMRK (protein, UniProt P90584 1-324)
chain: MENNSTERYIFKPNFLGEGSYGKVYKAYDTILKKEVAIKKMKLNEISNYIDDCGINFVLLREIKIMKEIKHKNIMSALDLYCEKDYINLVMEIMDYDLSKIINRKIFLTDSQKKCILLQILNGLNVLHKYYFMHRDLSPANIFINKKGEVKLADFGLCTKYGYDMYSDKLFRDKYKKNLNLTSKVVTLWYRAPELLLGSNKYNSSIDMWSFGCIFAELLLQKALFPGENEIDQLGKIFFLLGTPNENNWPEALCLPLYTEFTKATKKDFKTYFKIDDDDCIDLLTSFLKLNAHERISAEDAMKHRYFFNDPLPCDISQLPFNDL
binding: binds
